In publication PMC9880323:
These are yes or no findings as the source states them, for the method shown.

Biological target: soluble p67C (Theileria parva (Muguga)) (UniProt Q4MZ78)
Assay: SEC; preparative size exclusion chromatography of s-p67C alone; both purified

Substance: soluble p67C (from UniProt Q4MZ78 572-651) (domain or fragment)
- binding: no binding
